Taken from: PubChem BioAssay AID1224829 (NIAID, 2016)
Assay: 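Follow-up of TLR4-NF-kappaB regulators using six separate siRNAs for each gene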 (follow-up of hits). Cells: mouse RAW264.7 G9 macrophage reporter cells. Reagents: single siRNA against mouse genes, 100 nM. Timing: 2 days of siRNA knock-down, then 40 min of LPS before fixing. Challenge: LPS (Salmonella minnesota R595) at 10 ng/ml. Measured: 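Imaging of GFP-p65 after 40 min of LPS; nuclear over perinuclear ring intensity ratio, scaled to plate median and non-targeting control wells, given as z-score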. Direction: p65 translocation z-score: higher = more nuclear NF-kappaB p65 after LPS. Rule for the call: 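An siRNA is called active when the mean z-score of its two replicates is above 2 or below -2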. Meaning of the calls: active = changed p65 translocation (either direction); inactive = no clear change.
The whole screen tested about 3,800 reagents; below is a random part of them. 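Calls cover raised and lowered translocation; gene median uses one vendor's three siRNAs; qiagen siRNAs acted more weakly than ambion siRNAs.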 The numbers tell different reagents against one gene apart. Further read-outs or replicates are left out here. No sequences are given here.

no.	gene symbol	siRNA no.	siRNA vendor or control pool	p65 translocation z-score, replicate mean	outcome
1	Psmd4	1	ambion single siRNA	-4.1	active
2	Psmd4	2	ambion single siRNA	-1.82	inactive
3	Psmd4	3	ambion single siRNA	-0.12	inactive
4	Psmd4	4	qiagen single siRNA	1.29	inactive
5	Psmd4	5	qiagen single siRNA	2.69	active
6	Psmd4	6	qiagen single siRNA	1.74	inactive
7	Drap1	1	ambion single siRNA	-1.37	inactive
8	Drap1	2	ambion single siRNA	0.696	inactive
9	Drap1	3	ambion single siRNA	-4.12	active
10	Drap1	4	qiagen single siRNA	0.526	inactive
11	Drap1	5	qiagen single siRNA	-1.52	inactive
12	Drap1	6	qiagen single siRNA	-0.0438	inactive
13	Polr2b	1	ambion single siRNA	0.404	inactive
14	Polr2b	2	ambion single siRNA	1.93	inactive
15	Polr2b	3	ambion single siRNA	-0.465	inactive
16	Polr2b	4	qiagen single siRNA	-2.17	active
17	Polr2b	5	qiagen single siRNA	-3.54	active
18	Polr2b	6	qiagen single siRNA	-3.51	active
19	Optn	1	ambion single siRNA	-1.45	inactive
20	Optn	2	ambion single siRNA	-7.2	active
21	Optn	3	ambion single siRNA	0.734	inactive
22	Optn	4	qiagen single siRNA	0.725	inactive
23	Optn	5	qiagen single siRNA	-1.15	inactive
24	Optn	6	qiagen single siRNA	-2.82	active
25	Rpn2	1	ambion single siRNA	1.41	inactive
26	Rpn2	2	ambion single siRNA	-3.53	active
27	Rpn2	3	ambion single siRNA	-4.49	active
28	Rpn2	4	qiagen single siRNA	3.06	active
29	Rpn2	5	qiagen single siRNA	-0.425	inactive
30	Rpn2	6	qiagen single siRNA	-3.03	active
31	Hnrnpa1	1	ambion single siRNA	-3.18	active
32	Hnrnpa1	2	ambion single siRNA	0.641	inactive
33	Hnrnpa1	3	ambion single siRNA	-2.28	active
34	Hnrnpa1	4	qiagen single siRNA	0.861	inactive
35	Hnrnpa1	5	qiagen single siRNA	-0.215	inactive
36	Hnrnpa1	6	qiagen single siRNA	0.0983	inactive

Taken from above:
For “outcome”, Optn #5, siRNA vendor or control pool qiagen single siRNA is entered as inactive
For “outcome”, Drap1 #3, siRNA vendor or control pool ambion single siRNA reads active
Value for Psmd4 #1, siRNA vendor or control pool ambion single siRNA in “p65 translocation z-score, replicate mean”: -4.1
